Test results taken from patent US20180064682A1, “INHIBITORS OF LEUKOTRIENE-MEDIATED ACTIVITY FOR TREATING SIDE EFFECTS OF STATIN THERAPY” (Yeda Research and Development Co. Ltd., priority 2014, published 2018).
For at least one compound, name, drawing or mass did not settle the structure.

Legend:
[1] = test system: differentiated mouse C2C12 myocytes; assay: Simvastatin-triggered cell death of differentiated C2C12 myocytes, Crystal violet; type: cell-based; settings: 20 uM simvastatin, 4 days, zileuton 10 μM, montelukast 2 μM
Procedure: FIGS. 11A-11B. BAY-cysLT2 and BAY-u9773 but not pranlukast attenuate simvastatin-triggered cell death of differentiated C2C12 mouse myocytes. (FIG. 11A) Survival of mouse C2C12 cells following differentiation into myocytes, treated with 10 uM simvastatin for 5 days in the presence of vehicle, pranlukast (10 μM), BAY-cysLT2 (10 μM), BAY-u9773 (1 μM) or Mevalonate (71.4 μM). The plates were then stained with Crystal violet and the relative cell viability was determined. (FIG. 11B) Quantification of the staining intensity is shown.
FIGS. 12A-12B. Zileuton but not montelukast attenuates simvastatin-triggered death of differentiated C2C12 mouse myocytes. (FIG. 12A) C2C12 immortalized mouse myoblasts (15,000 cells/100 ul DMEM) were seeded for 24 and then differentiated for 3 days (initiated by serum free medium supplemented with 1×ITS medium) and then treated with […] Simvastatin with or without montelukast (2 μM), zileuton (10 μM) or mevalonate (71.4 μM). After 4 days the cells were stained with crystal violet and photographed under light microscope. (FIG. 12B) Quantification of the staining intensity is shown. […]

NOX4 in human WISH cells = assay: NOX4 levels by immunoblotting, WISH cells under ER stress; type: cell-based; settings: Brefeldin A 0.66 μg/ml, 24 hours
Procedure: FIGS. 6A-6C. ER stress-triggered NADPH oxidase 4 (NOX4) expression, translocation towards the nuclei and DNA oxidation are mediated by the MGST2-LTC4 pathway. (FIG. 6A) Human WISH cells were treated with vehicle (Control) or Brefeldin A (0.66 μg/ml, 24 hours) in the absence or presence of BAY-u9773, MK571 or Montelukast. NOX4 levels were evaluated by immunoblotting. (FIG. 6B) Mouse B16 cells were treated with vehicle (Control) or tunicamycin (0.5 μg/ml, 24 hours) in the absence or presence of Montelukast, BAY-u9773 or BAY-cysLT2. NOX4 levels were evaluated by immunoblotting. (FIG. 6C) Human HaCaT pre-keratinocytes were treated with vehicle (Control) or Brefeldin A (48 hours) in the absence or presence of pranlukast or BAY-u9773, then immunostained with anti 8-OHdG. Quantitative analysis of 8-OHdG fluorescence intensity is shown. N=3 *p<0.05, ****p<0.001.
Several ligands of G-protein coupled receptors to which CysLTR1 and CysLTR2 belong elicit oxidative stress through receptor-mediated activation of NOX. Human WISH cells and Mouse B16 cells were treated with vehicle (Control) or Brefeldin A (0.66 μg/ml, 24 hours) in the absence or presence of BAY-u9773, MK571 or Montelukast and NOX4 levels were evaluated by immunoblotting.

## CC(C)(O)c1ccccc1CC[C@@H](SCC1(CC(=O)O)CC1)c1cccc(/C=C/c2ccc3ccc(Cl)cc3n2)c1 [montelukast]
[1]
  cell death triggered by simvastatin (staining intensity): did not protect these cells
NOX4 in human WISH cells
  NOX4 expression upon ER stress: greatly inhibited NOX4 expression
